According to publication PMC8228889:
No constants are given. Whether binding was seen depends on the method and setting. Binding seen in cells or lysates may run through a third protein. Some binding calls cover weakened binding; strength is not graded here. Tags and fused reporters may be left off the sequences shown.

Chains of the proteins cited; added tags and fusions are not shown.
UniProt Q86U86: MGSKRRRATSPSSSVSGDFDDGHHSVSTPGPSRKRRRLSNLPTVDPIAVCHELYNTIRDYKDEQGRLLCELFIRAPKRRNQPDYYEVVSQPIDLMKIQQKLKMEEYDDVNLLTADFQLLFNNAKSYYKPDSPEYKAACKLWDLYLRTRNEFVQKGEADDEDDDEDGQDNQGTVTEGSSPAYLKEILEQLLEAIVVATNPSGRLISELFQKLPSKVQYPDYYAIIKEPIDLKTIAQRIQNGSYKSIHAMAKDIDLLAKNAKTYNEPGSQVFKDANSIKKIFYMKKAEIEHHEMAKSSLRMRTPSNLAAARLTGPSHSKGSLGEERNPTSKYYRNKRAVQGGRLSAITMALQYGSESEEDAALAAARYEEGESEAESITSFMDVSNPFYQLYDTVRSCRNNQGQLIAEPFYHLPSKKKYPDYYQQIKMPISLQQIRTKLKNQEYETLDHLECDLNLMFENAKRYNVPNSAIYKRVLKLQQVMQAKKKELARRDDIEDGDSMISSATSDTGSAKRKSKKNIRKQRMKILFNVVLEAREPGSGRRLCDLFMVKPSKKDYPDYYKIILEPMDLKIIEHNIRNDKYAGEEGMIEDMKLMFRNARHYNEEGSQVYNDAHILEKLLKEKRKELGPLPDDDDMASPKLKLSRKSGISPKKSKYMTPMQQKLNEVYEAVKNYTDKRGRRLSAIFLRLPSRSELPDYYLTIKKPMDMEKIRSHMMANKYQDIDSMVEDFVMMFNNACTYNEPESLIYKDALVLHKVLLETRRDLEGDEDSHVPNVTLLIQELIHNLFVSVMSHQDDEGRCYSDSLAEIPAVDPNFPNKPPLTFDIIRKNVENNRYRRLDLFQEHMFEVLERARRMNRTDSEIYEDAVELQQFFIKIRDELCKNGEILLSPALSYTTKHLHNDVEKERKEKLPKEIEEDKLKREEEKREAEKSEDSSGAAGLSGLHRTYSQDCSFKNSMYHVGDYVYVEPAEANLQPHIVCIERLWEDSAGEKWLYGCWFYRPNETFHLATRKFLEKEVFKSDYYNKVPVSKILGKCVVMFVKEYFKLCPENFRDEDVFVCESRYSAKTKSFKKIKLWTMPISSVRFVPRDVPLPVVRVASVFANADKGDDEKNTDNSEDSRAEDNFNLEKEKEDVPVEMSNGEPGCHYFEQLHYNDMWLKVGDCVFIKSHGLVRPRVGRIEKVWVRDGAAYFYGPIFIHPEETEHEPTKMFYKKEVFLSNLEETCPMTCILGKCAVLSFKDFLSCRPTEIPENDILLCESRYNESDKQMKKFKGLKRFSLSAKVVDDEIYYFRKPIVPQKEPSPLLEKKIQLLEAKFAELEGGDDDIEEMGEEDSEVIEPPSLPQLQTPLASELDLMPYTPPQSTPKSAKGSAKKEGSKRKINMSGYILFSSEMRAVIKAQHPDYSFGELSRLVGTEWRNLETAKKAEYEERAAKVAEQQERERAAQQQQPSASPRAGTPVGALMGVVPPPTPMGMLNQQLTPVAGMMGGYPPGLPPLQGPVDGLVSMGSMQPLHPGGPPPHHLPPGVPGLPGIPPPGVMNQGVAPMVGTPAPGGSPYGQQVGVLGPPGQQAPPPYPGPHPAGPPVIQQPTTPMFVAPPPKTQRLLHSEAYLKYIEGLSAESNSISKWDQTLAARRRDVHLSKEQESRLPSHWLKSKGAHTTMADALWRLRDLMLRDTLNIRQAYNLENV

Columns and labels:
Test in all cases: pull-down; recombinant His-tagged bait on Ni-NTA beads incubated with 1 mg total HeLa cell lysate overnight at 4 °C, washed (200 mM NaCl, 0.1% Tween-20), Western blot; HMG domain also with or without 50 µg RNAse A; only the target purified
[1] = biological target: T1, 6xHis-tagged YTHDF2 (1–384) (UniProt Q9Y5A9)
T1 sequence: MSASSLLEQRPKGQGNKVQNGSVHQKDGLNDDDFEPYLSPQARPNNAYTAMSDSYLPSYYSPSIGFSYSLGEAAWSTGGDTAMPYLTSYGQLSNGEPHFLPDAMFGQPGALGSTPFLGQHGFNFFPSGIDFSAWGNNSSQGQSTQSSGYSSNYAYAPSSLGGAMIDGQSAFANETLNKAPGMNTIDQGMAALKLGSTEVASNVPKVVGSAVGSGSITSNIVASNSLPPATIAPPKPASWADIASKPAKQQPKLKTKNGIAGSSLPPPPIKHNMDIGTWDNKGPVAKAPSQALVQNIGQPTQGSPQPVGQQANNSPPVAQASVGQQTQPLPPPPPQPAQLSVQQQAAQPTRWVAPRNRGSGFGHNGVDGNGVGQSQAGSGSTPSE

[2] = biological target: T2, 6xHis-tagged YTHDF2 (1–579) (UniProt Q9Y5A9)
T2 sequence: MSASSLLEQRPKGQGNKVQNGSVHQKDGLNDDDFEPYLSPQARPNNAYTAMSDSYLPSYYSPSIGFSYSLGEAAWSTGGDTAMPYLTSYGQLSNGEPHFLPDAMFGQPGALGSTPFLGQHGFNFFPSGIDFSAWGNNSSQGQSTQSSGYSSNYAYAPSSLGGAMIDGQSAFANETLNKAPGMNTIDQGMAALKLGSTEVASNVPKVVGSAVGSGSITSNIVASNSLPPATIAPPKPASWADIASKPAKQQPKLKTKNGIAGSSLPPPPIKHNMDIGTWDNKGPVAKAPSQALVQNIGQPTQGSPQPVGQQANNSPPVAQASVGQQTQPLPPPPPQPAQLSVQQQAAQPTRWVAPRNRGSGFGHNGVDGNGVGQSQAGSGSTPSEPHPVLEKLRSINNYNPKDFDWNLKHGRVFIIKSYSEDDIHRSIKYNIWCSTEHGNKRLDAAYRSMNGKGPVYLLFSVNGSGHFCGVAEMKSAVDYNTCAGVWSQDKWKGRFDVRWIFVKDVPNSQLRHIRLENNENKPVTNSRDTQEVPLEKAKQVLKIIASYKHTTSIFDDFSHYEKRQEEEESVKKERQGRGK

[3] = biological target: T3, 6xHis-tagged YTHDF2 (384–579) (UniProt Q9Y5A9)
T3 sequence: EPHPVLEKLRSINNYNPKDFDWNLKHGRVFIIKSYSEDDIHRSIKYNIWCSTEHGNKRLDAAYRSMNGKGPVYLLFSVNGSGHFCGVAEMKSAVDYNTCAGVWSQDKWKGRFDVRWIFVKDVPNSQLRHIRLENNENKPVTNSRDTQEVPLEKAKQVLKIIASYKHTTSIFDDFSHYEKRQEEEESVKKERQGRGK

binding [1]: no binding
binding [2]: binds
binding [3]: binds
Substance: PBRM1 (protein polybromo-1) (from UniProt Q86U86 1-1689)
